Measured values from PubChem BioAssay AID192 (DTP/NCI, 2004).
The list shows only some results of the screen, not a fair sample: it covers a few groups of compounds. Other doses and runs of a compound may be missing. T/C gives the treated animals as a percentage of the vehicle group. Some entries give survivors of the animals treated and no T/C: the source holds a T/C of zero for them, seemingly a mark for toxic or unscored doses. Some survivor counts are full or nearly so, which does not show that the dose was tolerated: the source hardly ever lists a survival T/C far under the control, and the zero likely stands for such cases as well. Survivors were counted at the toxicity check, usually on the fifth day, unless a day is given; later deaths do not show. Schedules are NCI's codes, read here as Q, the interval in days (D) or hours (H), X, the number of doses. For survival time, the PubChem record calls one and a half times the control and up active, and a quarter to a half above the control has no call in these data; cut-offs in other NCI protocols can differ. Some T/C values are followed by the survivors on the day toxicity was checked, most often the fifth; without a count or a note in brackets, all were alive then.

Tested on: BDF1 mice, B16 melanoma ip, median survival T/C
Assay: NCI In Vivo Anticancer Drug Screen. Data for tumor model B16 Melanoma (intraperitoneal) in B6D2F1 (BDF1) mice
Details: T/C endpoint: median survival time, higher T/C = longer survival
How it was run: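 Read-out: survival or tumor size, given as treated/control ratio. Controls received vehicle only; animals bore transplantable tumors.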

[1] = dose: 12.5 mg/kg/injection, schedule: Q01DX009 (ip), vehicle: Klucel (hydroxypropylcellulose) (HPC)
[2] = dose: 25.0 mg/kg/injection, schedule: Q01DX009 (ip), vehicle: Klucel (hydroxypropylcellulose) (HPC)
[3] = dose: 50.0 mg/kg/injection, schedule: Q01DX009 (ip), vehicle: Klucel (hydroxypropylcellulose) (HPC)
[4] = dose: 32.0 mg/kg/injection, schedule: Q01DX009 (ip), vehicle: saline with Tween-80
[5] = dose: 64.0 mg/kg/injection, schedule: Q01DX009 (ip), vehicle: saline with Tween-80

O=[N+]([O-])c1ccc(Nc2ccc(Oc3ccc([N+](=O)[O-])cc3[N+](=O)[O-])cc2)c([N+](=O)[O-])c1
T/C (dose: 12.5 mg/kg/injection, schedule: Q04DX003 (ip), vehicle: Klucel (hydroxypropylcellulose) (HPC)): 90 % of control
T/C (dose: 25.0 mg/kg/injection, schedule: Q04DX003 (ip), vehicle: Klucel (hydroxypropylcellulose) (HPC)): 93 % of control [9 of 10 alive]
T/C (dose: 50.0 mg/kg/injection, schedule: Q04DX003 (ip), vehicle: Klucel (hydroxypropylcellulose) (HPC)): 100 % of control
survivor count (dose: 100.0 mg/kg/injection, schedule: Q04DX003 (ip), vehicle: Klucel (hydroxypropylcellulose) (HPC)): 10 of 10
survivor count (dose: 200.0 mg/kg/injection, schedule: Q04DX003 (ip), vehicle: Klucel (hydroxypropylcellulose) (HPC)): 9 of 10
survivor count (dose: 400.0 mg/kg/injection, schedule: Q04DX003 (ip), vehicle: Klucel (hydroxypropylcellulose) (HPC)): 10 of 10

ICCN(CCI)c1cccc2ccccc12
T/C (dose: 1.56 mg/kg/injection, schedule: Q01DX009 (ip), vehicle: Klucel (hydroxypropylcellulose) (HPC)): 119 % of control
T/C (dose: 3.12 mg/kg/injection, schedule: Q01DX009 (ip), vehicle: Klucel (hydroxypropylcellulose) (HPC)): 137 % of control
T/C (dose: 6.25 mg/kg/injection, schedule: Q01DX009 (ip), vehicle: Klucel (hydroxypropylcellulose) (HPC)): 130 % of control
T/C [1]: 146 % of control
T/C [2]: 157 % of control
survivor count [3]: 10 of 10

CCN(CCCl)CC1OC(OC)C2OC(C)(C)OC12 (stereo not drawn)
T/C (dose: 4.3 mg/kg/injection, schedule: Q01DX006 (ip), vehicle: saline): 130 % of control
T/C (dose: 4.3 mg/kg/injection, schedule: Q01DX009 (ip), vehicle: saline): 129 % of control
T/C (dose: 7.2 mg/kg/injection, schedule: Q01DX006 (ip), vehicle: saline): 148 % of control
T/C (dose: 7.2 mg/kg/injection, schedule: Q01DX009 (ip), vehicle: saline): 145 % of control
T/C (dose: 12.0 mg/kg/injection, schedule: Q01DX006 (ip), vehicle: saline): 150 % of control
T/C (dose: 12.0 mg/kg/injection, schedule: Q01DX009 (ip), vehicle: saline): 122 % of control
T/C (dose: 20.0 mg/kg/injection, schedule: Q01DX006 (ip), vehicle: saline): 153 % of control
survivor count (dose: 20.0 mg/kg/injection, schedule: Q01DX009 (ip), vehicle: saline): 10 of 10

N#C/C(=C\c1ccc(N(CCBr)CCBr)cc1)C(N)=O
T/C (dose: 0.5 mg/kg/injection, schedule: Q01DX009 (ip), vehicle: saline with Tween-80): 127 % of control
T/C (dose: 1.0 mg/kg/injection, schedule: Q01DX009 (ip), vehicle: saline sonified): 144 % of control
T/C (dose: 1.0 mg/kg/injection, schedule: Q01DX009 (ip), vehicle: saline with Tween-80): 135 % of control
T/C (dose: 2.0 mg/kg/injection, schedule: Q01DX009 (ip), vehicle: Klucel (hydroxypropylcellulose) (HPC)): 133 % of control
T/C (dose: 2.0 mg/kg/injection, schedule: Q01DX009 (ip), vehicle: saline sonified): 142 % of control
T/C (dose: 2.0 mg/kg/injection, schedule: Q01DX009 (ip), vehicle: saline with Tween-80): 150 % of control
T/C (dose: 3.0 mg/kg/injection, schedule: Q01DX009 (ip), vehicle: Klucel (hydroxypropylcellulose) (HPC)): 184 % of control
T/C (dose: 4.0 mg/kg/injection, schedule: Q01DX009 (ip), vehicle: saline sonified): 163 % of control
T/C (dose: 4.0 mg/kg/injection, schedule: Q01DX009 (ip), vehicle: saline with Tween-80): 141 % of control [9 of 10 alive]
T/C (dose: 4.5 mg/kg/injection, schedule: Q01DX009 (ip), vehicle: Klucel (hydroxypropylcellulose) (HPC)): 187 % of control
T/C (dose: 8.0 mg/kg/injection, schedule: Q01DX009 (ip), vehicle: saline sonified): 94 % of control
survivor count (dose: 8.0 mg/kg/injection, schedule: Q01DX009 (ip), vehicle: saline with Tween-80): 9 of 10
survivor count (dose: 12.0 mg/kg/injection, schedule: Q01DX009 (ip), vehicle: saline with Tween-80): 10 of 10

C[As](C)SC1OC(CO)C(O)C(O)C1O (stereo not drawn)
T/C [1]: 98 % of control [8 of 10 alive]
T/C [2]: 109 % of control
survivor count [3]: 4 of 10

COc1ccc(O)c2c(=O)c3c(OC)cc4c(c3oc12)[C@@H]1C=CO[C@@H]1O4
T/C (dose: 4.0 mg/kg/injection, schedule: Q01DX009 (ip), vehicle: Klucel (hydroxypropylcellulose) (HPC)): 118 % of control
T/C (dose: 4.0 mg/kg/injection, schedule: Q01DX009 (ip), vehicle: saline with Tween-80, evaluated on day 45): 164 % of control
T/C (dose: 4.0 mg/kg/injection, schedule: Q01DX009 (ip), vehicle: saline with Tween-80, evaluated on day 60): 116 % of control
T/C (dose: 8.0 mg/kg/injection, schedule: Q01DX009 (ip), vehicle: Klucel (hydroxypropylcellulose) (HPC)): 118 % of control
T/C (dose: 8.0 mg/kg/injection, schedule: Q01DX009 (ip), vehicle: saline with Tween-80, evaluated on day 45): 145 % of control
T/C (dose: 8.0 mg/kg/injection, schedule: Q01DX009 (ip), vehicle: saline with Tween-80, evaluated on day 60): 118 % of control
T/C (dose: 16.0 mg/kg/injection, schedule: Q01DX009 (ip), vehicle: Klucel (hydroxypropylcellulose) (HPC)): 134 % of control [9 of 10 alive]
T/C (dose: 16.0 mg/kg/injection, schedule: Q01DX009 (ip), vehicle: saline with Tween-80, evaluated on day 45): 152 % of control
T/C (dose: 16.0 mg/kg/injection, schedule: Q01DX009 (ip), vehicle: saline with Tween-80, evaluated on day 60): 135 % of control
T/C (dose: 32.0 mg/kg/injection, schedule: Q01DX009 (ip), vehicle: Klucel (hydroxypropylcellulose) (HPC)): 134 % of control
T/C [4]: 134 % of control
survivor count [4]: 6 of 6
survivor count (dose: 64.0 mg/kg/injection, schedule: Q01DX009 (ip), vehicle: Klucel (hydroxypropylcellulose) (HPC)): 10 of 10
T/C [5]: 132 % of control
survivor count [5]: 5 of 6
survivor count (dose: 128.0 mg/kg/injection, schedule: Q01DX009 (ip), vehicle: Klucel (hydroxypropylcellulose) (HPC)): 10 of 10
survivor count (dose: 256.0 mg/kg/injection, schedule: Q01DX009 (ip), vehicle: Klucel (hydroxypropylcellulose) (HPC)): 4 of 10
